Data set [1] is described as follows: Human plasma protein binding (RED dialysis). As to conditions: human, plasma, 10 μM, 5 hours dialysis. On the procedure: (§1) The test compounds were weighed and prepared as 10 mM stocks in 100% DMSO. 10 μM is the final test concentration for all compounds.
(§2) The samples were prepared by spiking test compound(s) in plasma at 10 μM final concentration. 200 μL of plasma containing the test compound was added into the donor well (RED Chamber) of the insert. Simultaneously 350 μL of dialysis buffer (1×PBS) was added into the receiver well (white chamber). Two measurements were made for each test compound. The plate was covered with a sealer and incubated at 37° C. degrees on an orbital shaker at 500 rpm for 5 hours.
(§3) After incubation, 25 μl of plasma (RED chamber) and 25 μl of buffer (white chamber) samples were separately collected into separate centrifugation tubes. Plasma and buffer samples were precipitated with 200 μL of 100% acetonitrile containing internal standards. 25 μl of T0 (T Zero) plasma samples (samples before 5 hours incubation) were collected (To samples were processed immediately after the preparation of plasma working stock solution. These samples serve as a measure for calculating the percentage recovery of the test compound and precipitated using 100% acetonitrile containing internal standards). The samples were vortexed at 1000 rpm for 5 min and centrifuged at 4000 rpm for 10 min. The supernatant was diluted 2-fold with water and injected into LC-MS/MS.
(§4) The % of Plasma bound/unbound fraction was calculated by the following equation: % Unbound or % free=100*(Fc/Tc); % Recovery=100 (Fc+Tc)/[…] where Tc=Total compound concentration as determined by the calculated concentration on the plasma side of the membrane (concentration in plasma chamber), Fc=Free compound concentration as determined by the calculated concentration on the buffer side of the membrane (concentration in buffer chamber) and T0=Total compound concentration as determined before dialysis.

A further data set has as its system Human Plasma Protein. Kind of data set: Human plasma protein binding (RED dialysis). On the procedure:
as §1, §2, §3, §4

Data set [2] in a line: Caco-2 permeability assay. As to conditions: human. The source says: The endpoint measured is the intestinal permeability expressed as apparent permeability—Papp value. All permeability values are represented as ×10^−6 cm/sec.

The values below come from US12168673B2 (Mitopower, Inc., priority 2022, dated 2024).

For `CC(C)NCC(O)COc1ccc(CC(N)=O)cc1` (stereo not drawn) [Atenolol], the fraction unbound at 5 h, 10 μM is 0.835 in data set [1] (% Bound in plasma), 0.835 in data set [1] (% Unbound in plasma) and 0.84 in data set [1] (Fraction unbound). Moreover, the “Remarks (binding class)” value in the data set on Human Plasma Protein is listed as “Low binding”.

Regarding `NS(=O)(=O)c1cc(C(=O)O)c(NCc2ccco2)cc1Cl` [Furosemide, reference compound], in data set [2], the Papp A→B came out at 2 nm/s, the Papp B→A worked out at 117 nm/s and the efflux ratio came to 73.7. The recovery in data set [2] (Caco-2, % Recovery A to B) was determined as 72.2%. For the same compound, the recovery in data set [2] (Caco-2, % Recovery B to A) stood at 73.9%.

One may read the fraction unbound as free concentration divided by total concentration. Read a low fraction unbound as extensive binding. The Papp A→B is the apparent permeability from the apical to the basolateral side of a cell layer. A low value points to poor permeation. Broadly, the Papp B→A is the apparent permeability from the basolateral to the apical side of a cell layer. The term efflux ratio denotes a quotient of directional permeabilities that is used to spot active efflux.
